No constants are given. Whether binding was seen depends on the method and setting. In cells and extracts the contact can be indirect. These calls come from enrichment with a bait or labelling near it, and not all partners need be listed.
Tests used:
Test in all cases: proximity labelling
[1] = biological target: FAK (not stated (mouse and non-mouse baits used)) (UniProt P34152)
[2] = biological target: T1, p130Cas (not stated (mouse and non-mouse baits used)) (UniProt Q61140)
T1 sequence: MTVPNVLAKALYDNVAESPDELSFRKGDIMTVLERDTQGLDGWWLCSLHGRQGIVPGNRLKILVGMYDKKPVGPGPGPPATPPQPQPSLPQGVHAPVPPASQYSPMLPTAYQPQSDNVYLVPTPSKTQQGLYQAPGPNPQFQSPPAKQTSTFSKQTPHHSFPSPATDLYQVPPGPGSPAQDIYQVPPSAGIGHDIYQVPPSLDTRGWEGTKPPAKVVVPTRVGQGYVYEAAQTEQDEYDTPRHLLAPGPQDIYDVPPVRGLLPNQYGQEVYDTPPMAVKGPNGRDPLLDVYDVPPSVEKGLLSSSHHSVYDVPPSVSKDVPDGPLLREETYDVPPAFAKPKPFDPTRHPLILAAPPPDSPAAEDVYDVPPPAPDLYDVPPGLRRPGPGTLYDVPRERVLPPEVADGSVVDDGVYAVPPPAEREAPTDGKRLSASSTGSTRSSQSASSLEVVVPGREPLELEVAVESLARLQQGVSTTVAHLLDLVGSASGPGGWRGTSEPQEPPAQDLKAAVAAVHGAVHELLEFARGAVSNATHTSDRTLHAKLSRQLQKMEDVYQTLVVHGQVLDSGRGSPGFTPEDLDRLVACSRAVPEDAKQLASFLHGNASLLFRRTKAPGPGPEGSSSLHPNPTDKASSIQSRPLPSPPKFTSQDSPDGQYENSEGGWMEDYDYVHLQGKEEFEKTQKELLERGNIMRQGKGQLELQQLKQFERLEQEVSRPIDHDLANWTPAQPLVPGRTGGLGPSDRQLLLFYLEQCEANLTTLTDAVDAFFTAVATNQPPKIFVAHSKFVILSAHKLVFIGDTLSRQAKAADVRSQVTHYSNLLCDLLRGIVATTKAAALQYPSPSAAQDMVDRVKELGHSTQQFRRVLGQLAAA

The chains behind the UniProt entries cited, without tags or fusion partners.
UniProt P34152: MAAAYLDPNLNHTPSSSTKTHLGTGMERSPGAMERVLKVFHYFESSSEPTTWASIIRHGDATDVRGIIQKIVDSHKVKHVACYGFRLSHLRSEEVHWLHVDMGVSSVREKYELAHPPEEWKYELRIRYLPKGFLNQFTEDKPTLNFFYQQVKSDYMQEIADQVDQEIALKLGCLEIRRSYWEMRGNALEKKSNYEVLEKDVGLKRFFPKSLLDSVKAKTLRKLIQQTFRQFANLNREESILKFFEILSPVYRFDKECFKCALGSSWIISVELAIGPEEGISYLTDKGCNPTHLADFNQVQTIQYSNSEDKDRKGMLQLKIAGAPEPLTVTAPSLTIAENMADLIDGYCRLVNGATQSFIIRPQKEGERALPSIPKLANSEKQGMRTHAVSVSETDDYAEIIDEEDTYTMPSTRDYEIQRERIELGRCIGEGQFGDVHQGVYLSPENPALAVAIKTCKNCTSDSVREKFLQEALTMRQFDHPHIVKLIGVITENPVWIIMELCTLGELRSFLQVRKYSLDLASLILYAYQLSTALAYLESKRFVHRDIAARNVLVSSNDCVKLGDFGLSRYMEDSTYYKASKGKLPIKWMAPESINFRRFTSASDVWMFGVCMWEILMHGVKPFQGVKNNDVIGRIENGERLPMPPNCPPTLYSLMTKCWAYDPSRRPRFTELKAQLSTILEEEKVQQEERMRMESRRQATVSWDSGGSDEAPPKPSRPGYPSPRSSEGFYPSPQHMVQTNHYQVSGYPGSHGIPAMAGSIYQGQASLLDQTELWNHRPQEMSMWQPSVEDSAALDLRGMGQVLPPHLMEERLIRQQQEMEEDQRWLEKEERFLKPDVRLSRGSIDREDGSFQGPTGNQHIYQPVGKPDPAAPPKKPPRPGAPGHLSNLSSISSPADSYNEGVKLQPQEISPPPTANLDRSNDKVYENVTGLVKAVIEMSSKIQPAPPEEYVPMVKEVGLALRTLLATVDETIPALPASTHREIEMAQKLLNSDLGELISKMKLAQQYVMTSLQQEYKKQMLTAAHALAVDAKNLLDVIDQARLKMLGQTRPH
UniProt Q8VI36: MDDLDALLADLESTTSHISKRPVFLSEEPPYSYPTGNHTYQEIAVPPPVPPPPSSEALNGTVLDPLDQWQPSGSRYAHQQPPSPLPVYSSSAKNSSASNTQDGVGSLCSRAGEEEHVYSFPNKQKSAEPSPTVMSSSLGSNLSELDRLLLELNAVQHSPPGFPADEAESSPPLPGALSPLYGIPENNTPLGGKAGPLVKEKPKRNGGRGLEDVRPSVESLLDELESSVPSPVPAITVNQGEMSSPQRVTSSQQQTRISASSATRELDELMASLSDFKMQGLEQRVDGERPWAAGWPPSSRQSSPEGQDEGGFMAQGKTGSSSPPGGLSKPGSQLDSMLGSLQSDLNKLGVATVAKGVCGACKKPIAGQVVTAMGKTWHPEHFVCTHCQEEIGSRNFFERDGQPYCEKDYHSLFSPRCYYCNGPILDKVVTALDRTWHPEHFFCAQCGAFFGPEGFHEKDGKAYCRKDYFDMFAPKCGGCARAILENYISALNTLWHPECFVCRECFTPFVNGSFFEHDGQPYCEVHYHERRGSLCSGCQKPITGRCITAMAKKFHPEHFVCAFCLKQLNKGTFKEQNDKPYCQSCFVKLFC

[3] = biological target: paxillin (not stated (mouse and non-mouse baits used)) (UniProt Q8VI36)

- binding [1]: binds
- binding [2]: binds
- binding [3]: binds
B1: PTP-PEST (enzyme, UniProt P35831 1-775)
chain: MEQVEILRRFIQRVQAMKSPDHNGEDNFARDFMRLRRLSTKYRTEKIYPTATGEKEENVKKNRYKDILPFDHSRVKLTLKTPSQDSDYINANFIKGVYGPKAYVATQGPLANTVIDFWRMIWEYNVVIIVMACREFEMGRKKCERYWPLYGEDPITFAPFKISCENEQARTDYFIRTLLLEFQNESRRLYQFHYVNWPDHDVPSSFDSILDMISLMRKYQEHEDVPICIHCSAGCGRTGAICAIDYTWNLLKAGKIPEEFNVFNLIQEMRTQRHSAVQTKEQYELVHRAIAQLFEKQLQLYEIHGAQKIADGNEITTGTMVSSIDSEKQDSPPPKPPRTRSCLVEGDAKEEILQPPEPHPVPPILTPSPPSAFPTVTTVWQDSDRYHPKPVLHMASPEQHPADLNRSYDKSADPMGKSESAIEHIDKKLERNLSFEIKKVPLQEGPKSFDGNTLLNRGHAIKIKSASSSVVDRTSKPQELSAGALKVDDVSQNSCADCSAAHSHRAAESSEESQSNSHTPPRPDCLPLDKKGHVTWSLHGPENATPVPDSPDGKSPDNHSQTLKTVSSTPNSTAEEEAHDLTEHHNSSPLLKAPLSFTNPLHSDDSDSDGGSSDGAVTRNKTSISTASATVSPASSAESACTRRVLPMSIARQEVAGTPHSGAEKDADVSEESPPPLPERTPESFVLADMPVRPEWHELPNQEWSEQRESEGLTTSGNEKHDAGGIHTEASADSPPAFSDKKDQITKSPAEVTDIGFGNRCGKPKGPREPPSEWT

Source: article doi:10.1101/2020.01.24.918458
